Measurements: patent publication US10845371B2, “Soluble MANF in pancreatic beta-cell disorders” (University of Massachusetts, priority 2012, dated 2020)
At least one compound was matched to its structure with a doubt left.

Tested on: WFS1-knockdown β-cells (INS-1 832/13-derived)
Test: Doxycycline-inducible WFS1 knockdown INS-1 832/13 cells, cellular model of Wolfram syndrome
Type: cell-based, rat
Conditions: 2 μM doxycycline shWFS1; 10 nM apomorphine or 10 μM pioglitazone, FIG. 44
Description: FIG. 44 are two immunoblots showing the amount of cleaved caspase 3 (c-caspase3) and cleaved PARP (c-PARP) present in 10 nM thapsigargin-treated primary human islets (right immunoblot) and 2 μM doxycycline-treated WFS1 knockdown INS-1 832/13 cells (shWFS1) (left immunoblot) treated with 10 nM apomorphine or 10 μM pioglitazone.
Additional experiments were performed using INS-1 832/13-derived doxycycline-inducible WFS1 knockdown cells, a cellular model of Wolfram syndrome. This model was used to test whether apomorphine and pioglitazone could prevent cell death.

## CCc1ccc(CCOc2ccc(CC3SC(=O)NC3=O)cc2)nc1 (stereo not shown) [pioglitazone]
  Cell death of WFS1-knockdown cells: could protect WFS1-knockdown β-cells from cell death
